These results are taken from article doi:10.1101/2022.12.20.521243.

The target in this test is T1, XAP5 … …, epitope-tagged (XCT-YFP-HA) (Arabidopsis thaliana) (UniProt Q8H110).
T1 sequence: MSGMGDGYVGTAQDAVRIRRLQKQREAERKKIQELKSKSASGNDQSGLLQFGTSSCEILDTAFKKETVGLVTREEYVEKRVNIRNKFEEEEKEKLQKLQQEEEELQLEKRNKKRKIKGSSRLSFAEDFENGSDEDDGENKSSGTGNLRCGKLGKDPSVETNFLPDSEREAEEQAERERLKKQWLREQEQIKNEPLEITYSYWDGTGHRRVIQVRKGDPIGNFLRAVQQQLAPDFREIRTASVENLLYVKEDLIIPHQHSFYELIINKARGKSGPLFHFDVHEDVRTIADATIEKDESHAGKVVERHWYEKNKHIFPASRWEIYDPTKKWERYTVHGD
Kind of test: affinity purification with mass spectrometry.

No constants are given. Whether binding was seen depends on the method and setting. Binding seen in cells or lysates may run through a third protein. Here binding means that the protein was enriched with, or labelled near, the bait; the list need not be complete. Tags and fused reporters may be left off the sequences shown.

Regarding PRECURSOR RNA PROCESSING 19 (PRP19), the binding result is reported as “binds”.

PRP22: the binding entry was “binds”.
